Source: patent publication US20020157126A1 (published 2002)
These are yes or no findings as the source states them, for the method shown. Some results given as binding are weak or reduced against the parent protein; the word gives no strength.

Amino acid sequences for entries named in this document (tags omitted). Residues count along the entry.
UniProt P27040, residues 19-536: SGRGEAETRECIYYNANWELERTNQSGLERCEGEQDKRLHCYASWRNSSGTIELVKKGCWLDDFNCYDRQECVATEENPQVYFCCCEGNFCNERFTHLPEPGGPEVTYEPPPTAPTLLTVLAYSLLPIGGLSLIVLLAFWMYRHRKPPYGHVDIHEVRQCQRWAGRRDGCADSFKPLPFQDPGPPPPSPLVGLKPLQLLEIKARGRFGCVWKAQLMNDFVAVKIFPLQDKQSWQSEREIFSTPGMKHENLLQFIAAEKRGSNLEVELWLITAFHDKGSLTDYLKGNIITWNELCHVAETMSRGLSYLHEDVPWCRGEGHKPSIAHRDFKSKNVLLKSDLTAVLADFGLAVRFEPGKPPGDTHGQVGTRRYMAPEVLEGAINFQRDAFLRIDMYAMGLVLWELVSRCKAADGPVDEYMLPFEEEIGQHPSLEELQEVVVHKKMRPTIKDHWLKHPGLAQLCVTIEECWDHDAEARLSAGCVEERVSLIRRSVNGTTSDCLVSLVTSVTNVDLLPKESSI
UniProt P27038, residues 20-513: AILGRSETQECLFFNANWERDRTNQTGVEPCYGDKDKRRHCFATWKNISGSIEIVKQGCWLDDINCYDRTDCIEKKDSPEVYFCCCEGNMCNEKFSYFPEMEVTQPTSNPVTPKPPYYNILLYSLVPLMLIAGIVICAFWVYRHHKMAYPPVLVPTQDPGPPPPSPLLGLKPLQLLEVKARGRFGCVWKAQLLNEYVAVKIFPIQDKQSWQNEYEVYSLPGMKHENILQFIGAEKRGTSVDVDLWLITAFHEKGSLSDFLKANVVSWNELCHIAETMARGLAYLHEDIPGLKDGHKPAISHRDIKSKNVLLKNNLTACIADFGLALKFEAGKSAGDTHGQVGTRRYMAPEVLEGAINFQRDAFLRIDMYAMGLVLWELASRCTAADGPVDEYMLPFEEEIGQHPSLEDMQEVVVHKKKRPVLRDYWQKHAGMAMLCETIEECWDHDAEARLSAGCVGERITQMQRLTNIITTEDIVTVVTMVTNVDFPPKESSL
UniProt O08689, residues 268-376: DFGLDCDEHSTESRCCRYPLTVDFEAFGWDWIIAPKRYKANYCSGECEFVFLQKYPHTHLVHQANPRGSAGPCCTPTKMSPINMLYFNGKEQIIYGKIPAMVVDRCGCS

Key:
[1] = molecular target: activin type IIB receptor (Act RIIB) expressed on transfected COS cells (UniProt P27040); experiment: radio-iodinated myostatin on Act RIIB-transfected COS cells
[2] = molecular target: activin type IIA receptor (Act RIIA) expressed on transfected COS-7 cells (UniProt P27038); experiment: cross-linking and standard receptor binding assays on transfected COS-7 cells
[3] = molecular target: activin type IIB receptor (Act RIIB) expressed on transfected COS cells (UniProt P27040); experiment: as above

binding [1]: binds
binding [2]: binds
binding [3]: binds
Substance: myostatin mature C-terminal dimer (purified from conditioned medium of CHO cells) (from UniProt O08689 268-376) (ligand)
